The values below come from the supplement of paper PMC10849652.

Amino acid sequences for entries named in this document (tags omitted). A change or cut given only in a name is not applied to a line headed by its entry.
UniProt Q8N7B9: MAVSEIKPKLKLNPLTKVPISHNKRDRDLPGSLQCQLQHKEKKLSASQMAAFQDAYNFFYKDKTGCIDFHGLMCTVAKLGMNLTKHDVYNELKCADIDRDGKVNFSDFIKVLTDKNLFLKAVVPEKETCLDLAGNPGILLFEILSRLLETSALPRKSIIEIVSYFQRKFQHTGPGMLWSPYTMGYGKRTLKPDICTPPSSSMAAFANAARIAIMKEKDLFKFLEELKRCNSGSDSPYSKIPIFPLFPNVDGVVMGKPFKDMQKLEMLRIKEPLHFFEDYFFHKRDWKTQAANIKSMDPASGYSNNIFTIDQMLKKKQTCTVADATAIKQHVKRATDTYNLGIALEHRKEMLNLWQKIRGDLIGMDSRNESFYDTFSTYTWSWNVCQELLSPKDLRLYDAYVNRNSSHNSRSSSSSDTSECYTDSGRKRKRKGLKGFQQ
UniProt Q9Y6B2: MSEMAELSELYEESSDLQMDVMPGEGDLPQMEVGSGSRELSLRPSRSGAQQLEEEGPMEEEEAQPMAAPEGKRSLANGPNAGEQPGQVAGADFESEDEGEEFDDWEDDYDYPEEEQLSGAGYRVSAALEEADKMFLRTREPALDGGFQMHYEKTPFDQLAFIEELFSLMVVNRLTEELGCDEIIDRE
UniProt P29692: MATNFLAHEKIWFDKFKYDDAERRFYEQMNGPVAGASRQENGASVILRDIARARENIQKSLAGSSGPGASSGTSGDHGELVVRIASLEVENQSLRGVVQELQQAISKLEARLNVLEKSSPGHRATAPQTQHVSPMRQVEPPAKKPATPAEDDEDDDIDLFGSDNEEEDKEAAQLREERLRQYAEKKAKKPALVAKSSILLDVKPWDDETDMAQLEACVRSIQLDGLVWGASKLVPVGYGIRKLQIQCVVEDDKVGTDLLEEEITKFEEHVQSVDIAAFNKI
UniProt Q96KS0, whole entry, looked up: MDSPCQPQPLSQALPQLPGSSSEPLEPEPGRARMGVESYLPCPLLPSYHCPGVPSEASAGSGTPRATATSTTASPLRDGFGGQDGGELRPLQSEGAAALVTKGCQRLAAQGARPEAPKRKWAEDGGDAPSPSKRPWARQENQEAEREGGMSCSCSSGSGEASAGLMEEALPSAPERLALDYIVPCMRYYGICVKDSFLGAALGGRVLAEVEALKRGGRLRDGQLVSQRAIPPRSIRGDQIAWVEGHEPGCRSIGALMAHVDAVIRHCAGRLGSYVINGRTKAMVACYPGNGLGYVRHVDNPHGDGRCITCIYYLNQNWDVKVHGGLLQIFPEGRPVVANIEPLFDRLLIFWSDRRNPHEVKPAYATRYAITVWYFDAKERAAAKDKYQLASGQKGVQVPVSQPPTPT
UniProt Q8TD84: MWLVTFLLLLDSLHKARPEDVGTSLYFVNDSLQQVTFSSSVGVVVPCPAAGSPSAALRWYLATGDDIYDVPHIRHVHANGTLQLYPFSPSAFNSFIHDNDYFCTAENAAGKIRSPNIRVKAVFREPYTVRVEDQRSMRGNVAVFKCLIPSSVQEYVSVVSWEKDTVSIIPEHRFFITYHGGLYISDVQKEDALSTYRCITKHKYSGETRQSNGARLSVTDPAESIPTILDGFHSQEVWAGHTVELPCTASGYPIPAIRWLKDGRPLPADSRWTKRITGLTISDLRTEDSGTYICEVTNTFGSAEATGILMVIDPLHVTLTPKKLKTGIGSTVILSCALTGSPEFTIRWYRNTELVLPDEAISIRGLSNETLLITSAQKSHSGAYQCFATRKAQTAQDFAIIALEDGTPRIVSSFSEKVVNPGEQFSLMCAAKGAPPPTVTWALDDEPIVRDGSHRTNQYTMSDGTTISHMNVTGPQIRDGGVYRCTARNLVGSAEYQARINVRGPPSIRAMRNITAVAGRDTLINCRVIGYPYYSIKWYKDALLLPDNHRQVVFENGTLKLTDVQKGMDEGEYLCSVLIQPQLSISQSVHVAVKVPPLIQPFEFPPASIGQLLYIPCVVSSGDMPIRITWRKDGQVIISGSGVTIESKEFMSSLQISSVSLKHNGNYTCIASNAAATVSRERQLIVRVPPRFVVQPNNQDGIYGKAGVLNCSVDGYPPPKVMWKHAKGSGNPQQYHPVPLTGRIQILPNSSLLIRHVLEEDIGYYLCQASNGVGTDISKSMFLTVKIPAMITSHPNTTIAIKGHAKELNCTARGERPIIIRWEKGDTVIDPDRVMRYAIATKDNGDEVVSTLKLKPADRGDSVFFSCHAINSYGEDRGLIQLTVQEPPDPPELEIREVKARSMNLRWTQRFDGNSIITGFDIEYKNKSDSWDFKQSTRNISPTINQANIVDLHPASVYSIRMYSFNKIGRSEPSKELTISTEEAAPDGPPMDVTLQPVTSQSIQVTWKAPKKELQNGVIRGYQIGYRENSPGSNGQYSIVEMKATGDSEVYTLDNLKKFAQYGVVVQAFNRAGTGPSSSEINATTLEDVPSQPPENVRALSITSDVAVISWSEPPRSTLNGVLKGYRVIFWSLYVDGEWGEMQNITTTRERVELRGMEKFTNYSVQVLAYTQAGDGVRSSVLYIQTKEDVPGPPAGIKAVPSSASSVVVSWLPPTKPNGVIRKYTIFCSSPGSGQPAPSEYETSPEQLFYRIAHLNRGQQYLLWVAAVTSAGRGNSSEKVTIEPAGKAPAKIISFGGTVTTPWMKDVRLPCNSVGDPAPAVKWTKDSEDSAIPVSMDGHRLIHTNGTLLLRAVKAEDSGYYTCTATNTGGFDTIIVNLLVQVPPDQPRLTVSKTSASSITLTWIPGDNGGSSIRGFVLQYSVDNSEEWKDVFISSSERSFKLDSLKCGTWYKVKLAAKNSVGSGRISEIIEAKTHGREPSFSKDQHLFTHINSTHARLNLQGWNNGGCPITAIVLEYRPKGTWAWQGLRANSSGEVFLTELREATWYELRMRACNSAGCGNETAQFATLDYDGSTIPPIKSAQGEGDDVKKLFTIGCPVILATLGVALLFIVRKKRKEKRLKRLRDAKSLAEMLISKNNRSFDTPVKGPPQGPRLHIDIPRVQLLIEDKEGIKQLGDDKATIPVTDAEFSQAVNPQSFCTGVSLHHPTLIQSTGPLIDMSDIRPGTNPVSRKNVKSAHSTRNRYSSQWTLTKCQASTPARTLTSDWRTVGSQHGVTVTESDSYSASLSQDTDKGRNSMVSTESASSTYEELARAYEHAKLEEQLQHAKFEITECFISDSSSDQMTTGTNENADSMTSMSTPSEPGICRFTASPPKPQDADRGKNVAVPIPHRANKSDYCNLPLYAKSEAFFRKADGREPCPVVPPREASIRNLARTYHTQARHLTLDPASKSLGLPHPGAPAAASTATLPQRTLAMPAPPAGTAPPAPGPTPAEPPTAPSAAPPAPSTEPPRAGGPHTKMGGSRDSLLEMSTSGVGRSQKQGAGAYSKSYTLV
UniProt Q92784, whole entry, looked up: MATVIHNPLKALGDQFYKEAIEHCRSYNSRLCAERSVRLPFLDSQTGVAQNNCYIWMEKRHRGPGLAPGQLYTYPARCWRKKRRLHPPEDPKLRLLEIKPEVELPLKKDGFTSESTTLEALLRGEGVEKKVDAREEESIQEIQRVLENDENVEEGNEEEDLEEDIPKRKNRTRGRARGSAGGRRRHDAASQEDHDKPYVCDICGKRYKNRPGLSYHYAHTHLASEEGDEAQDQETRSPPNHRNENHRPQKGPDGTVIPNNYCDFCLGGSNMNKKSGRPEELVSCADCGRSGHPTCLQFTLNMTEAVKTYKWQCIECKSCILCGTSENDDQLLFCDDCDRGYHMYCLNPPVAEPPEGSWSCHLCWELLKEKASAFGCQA
UniProt Q5VUJ9: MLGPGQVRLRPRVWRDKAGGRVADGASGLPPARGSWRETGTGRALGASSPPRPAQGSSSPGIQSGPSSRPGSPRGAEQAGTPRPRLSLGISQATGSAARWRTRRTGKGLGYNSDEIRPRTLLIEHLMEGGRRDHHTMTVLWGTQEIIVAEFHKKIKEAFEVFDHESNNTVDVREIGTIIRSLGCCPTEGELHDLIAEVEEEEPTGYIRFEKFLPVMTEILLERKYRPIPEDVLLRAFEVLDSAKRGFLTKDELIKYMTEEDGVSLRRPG
UniProt Q96FX2: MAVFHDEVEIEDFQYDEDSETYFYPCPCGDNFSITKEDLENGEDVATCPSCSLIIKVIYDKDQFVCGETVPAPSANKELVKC

Assay in all cases: log2 fold change, soluble protein after heating vs DMSO (PISA); higher = thermal stabilisation; K562 lysate, 10 uM; active = over 0.2 and 3.5 SD of the protein, either way, in both replicates (recomputed)
Compound in assay [1]: CCCS(=O)(=O)Nc1ccc(F)c(C(=O)c2c[nH]c3ncc(Cl)cc23)c1F
In short, it runs like this:
(§1)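 Following dounce homogenisation of K562 pellets in PBS pH 7.4 with 1 mM MgCl2, crude extract at 1 mg/mL protein was incubated for 30 min with 10 μM compound. Aliquots were then heated for 3 min over 48°C-58°C and pooled, NP-40 was added to 0.5% at 4°C, and soluble protein was recovered as the supernatant at 21,000xg for 90 min. Channel-sum-equalised TMTpro 16plex LC-MS/MS quantified this protein. Each value, from duplicates, is a log-two fold change in thermal stability relative to solvent controls.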

Compound in assay [2]: CC[C@@H]1C(=O)N(C)c2cnc(Nc3ccc(C(=O)N[C@H]4CC[C@H](N5CCN(CC6CC6)CC5)CC4)cc3OC)nc2N1C(C)C [volasertib]
In short, it runs like this: as §1

Compound in assay [3]: CN1CCN(c2nc(C3=C(c4c[nH]c5ccccc45)C(=O)NC3=O)c3ccccc3n2)CC1 [sotrastaurin]
The method in brief: as §1

Compound in assay [4]: CNC(=O)C1=CC=CC=C1NC2=NC(=NC=C2Cl)NC3=C(C=C(C=C3)N4CCOCC4)OC
In short, it runs like this: as §1

Compound in assay [5]: COc1cc2nc(-c3cc(F)ccc3O)nc(N[C@@H]3CNC[C@H]3C(C)(C)O)c2cc1OC
The method in brief:
as §1

Compound in assay [6]: CC[C@@H]1C(=O)N(C)c2cnc(Nc3ccc(C(=O)NC4CCN(C)CC4)cc3OC)nc2N1C1CCCC1
The method in brief:
as §1

Compound in assay [7]: CCn1c(C(=O)N(C2CC2)C2CC2)cc2c3c(ncn3C)c(Nc3cc(C)n(C)n3)nc21
In short, it runs like this: as §1

Compound in assay [8]: CCn1cc(-c2ccnc3[nH]c(-c4cccc(CN(C)C)c4)cc23)c(-c2ccc(NC(=O)N(C)C)cc2)n1
The method in brief:
as §1

Compound in assay [9]: CN1CCC(CNc2ccc3ncc(-c4cccc(OC(F)(F)F)c4)n3n2)CC1
In short, it runs like this:
as §1

Compound in assay [10]: CN1CCN(CCOc2cc(OC3CCOCC3)c3c(Nc4c(Cl)ccc5c4OCO5)ncnc3c2)CC1 [saracatinib]
The method in brief: as §1

Compound in assay [11]: CN1CC[C@H](c2c(O)cc(O)c3c(=O)cc(-c4ccccc4Cl)oc23)[C@H](O)C1 [alvocidib]
In short, it runs like this:
as §1

Compound in assay [12]: CN1CCc2c(c3ccccc3n2Cc2ccc(C(=O)NO)cc2)C1 [Tubastatin A]
The method in brief: as §1

Compound in assay [13]: CNc1nc(-c2ccc3c(N)n[nH]c3c2)cc(N2C[C@@H](C(=O)NC3CCCCC3)CC[C@H]2C)n1
The method in brief: as §1

Compound in assay [14]: COC(=O)N[C@@H](C)CNc1nccc(-c2cn(C(C)C)nc2-c2cc(Cl)cc(NS(C)(=O)=O)c2F)n1 [encorafenib]
The method in brief:
as §1

Compound in assay [15]: COC(=O)[C@H](CCSC)NC(=O)C1=C(C=C(C=C1)NC[C@H](CS)N)C2=CC=CC=C2
The method in brief: as §1

Compound in assay [16]: COc1cc(Nc2ncc3c(n2)-c2ccc(Cl)cc2C(c2c(F)cccc2OC)=NC3)ccc1C(=O)O [alisertib]
In short, it runs like this:
as §1

Compound in assay [17]: COc1cc2ncnc(Nc3ccc(F)c(Cl)c3)c2cc1OCCCN1CCOCC1 [gefitinib]
The method in brief:
as §1

Compound in assay [18]: CCN(CCCOc1ccc2c(Nc3cc(CC(=O)Nc4cccc(F)c4)[nH]n3)ncnc2c1)CCOP(=O)(O)O [barasertib]
In short, it runs like this: as §1

Compound in assay [19]: CCCS(=O)(=O)Nc1ccc(F)c(C(=O)c2c[nH]c3ncc(-c4ccc(Cl)cc4)cc23)c1F [vemurafenib]
The method in brief: as §1

Compound in assay [20]: CNC(=O)c1ccc(Nc2ncc(C(F)(F)F)c(NCc3nccnc3N(C)S(C)(=O)=O)n2)cc1 [defactinib]
The method in brief: as §1

The other results are listed elsewhere or left out.

Regarding EFCAB3 (UniProt Q8N7B9), the log2 fold change in assay [1] was inactive: -0.066; in assay [2], inactive: 0.007; in assay [3], inactive: 0.046; in [4] it was inactive: 0.083; in assay [5], inactive: -0.104.

As for EID1 (UniProt Q9Y6B2), the log2 fold change in [6] was inactive: 0.015; in [7], inactive: 0.001; in assay [8], inactive: -0.073; in assay [9] it was inactive: 0.002; in [10], inactive: -0.157; in assay [11], inactive: -0.061. Further, the log2 fold change is inactive: -0.004 in [12]; inactive: 0.036 in assay [4]; inactive: 0.046 in [13]; inactive: -0.057 in assay [14]; inactive: 0.072 in assay [15]; inactive: -0.067 in assay [16]. Besides, the log2 fold change in [17] was inactive: 0.022.

Turning to EEF1D isoform 3 (UniProt P29692), the log2 fold change in assay [1] is inactive: 0.126; in assay [18], inactive: -0.117; in assay [2], inactive: 0.302; in assay [3], inactive: -0.233; in assay [4], inactive: 0.093; in [5] it was inactive: -0.049.

As to EGLN2 (UniProt Q96KS0), the log2 fold change in assay [19] is inactive: 0.327; in assay [6], inactive: -0.18; in assay [7] it was inactive: -0.193; in [8] it was inactive: -0.376; in assay [9] it was inactive: 0.094; in assay [3] it was inactive: 0.007. In addition, the log2 fold change is inactive: 0.064 in assay [11]; inactive: 0.062 in [12]; inactive: 0.216 in assay [20]; inactive: 0.017 in [14]; inactive: 0.007 in [15].

With DST isoform 3 (UniProt Q03001), the log2 fold change in [18] was inactive: 0.041; in [6], inactive: 0.052; in assay [8], active: 1.48; in [9], inactive: -0.213; in assay [11] it was inactive: 0.386; in assay [4], inactive: -0.061. In addition, the figures for the log2 fold change in assay [14] and in [15] were inactive: 0.008 and inactive: -0.004, respectively.

Consider DSCAML1 (UniProt Q8TD84), for which the log2 fold change was inactive: 0.002 in [1]; inactive: 0.542 in assay [18]; inactive: -0.01 in [2]; inactive: -0.111 in [7]; inactive: 0.819 in assay [8]; inactive: 0.099 in [9]. Also, the log2 fold change in assay [3] was inactive: -0.036; in [11], inactive: -0.035; in assay [12], inactive: 0.03; in assay [16], inactive: 0.084; in assay [5], inactive: 0.033; in assay [17], inactive: 0.039.

Consider DPF3 isoform 3 (UniProt Q92784), for which the log2 fold change was inactive: 0.005 in assay [18], inactive: 0.049 in [16] and inactive: -0.057 in [17].

Take EFCAB2 isoform 2 (UniProt Q5VUJ9): the log2 fold change is inactive: -0.041 in assay [6]; inactive: 0.035 in assay [7]; inactive: 0.017 in assay [8]; inactive: 0.056 in assay [9]; inactive: -0.055 in [3]; inactive: -0.035 in [11]. Besides, the log2 fold change was inactive: -0.083 in assay [12]; inactive: -0.044 in assay [4]; inactive: -0.027 in [14]; inactive: -0.004 in assay [15]; inactive: -0.045 in [16]; inactive: 0.024 in [17].

For DPH3 (UniProt Q96FX2), the log2 fold change in assay [19] is inactive: 0.007; in assay [18], inactive: 0.102; in assay [6], inactive: -0.063; in assay [8], inactive: 0.045; in assay [9], inactive: 0.024; in assay [10], inactive: 0.016. Besides, the log2 fold change was inactive: -0.125 in assay [3]; inactive: -0.043 in assay [11]; inactive: -0.042 in assay [20]; inactive: 0.142 in assay [13]; inactive: -0.017 in assay [14]; inactive: -0.151 in assay [15].
